The whole screen tested about 320,000 compounds, of which about 620 (0.19%) were called active. This list was built around the results that the source calls inconclusive (neither active nor inactive); the mix of calls is not that of the screen. Rule as the data show it: active = activation above about 80%; inconclusive = between about 30% and that limit; inactive = weaker than that.
Target: Transient receptor potential cation channel subfamily V member 1 (Homo sapiens) (UniProt Q8NER1)
Assay: HTS Assay for Compounds that Act as Agonists of the Vanilloid Receptor 1; also: 0% is about no effect
Conditions: TRPV1-expressing cells, Fluo-8 calcium influx, agonist mode; at 8.33 µM, hits give high values
Summary of the method: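 TRPV1-expressing cells were cultured overnight at 35.5C and loaded with Fluo-8 calcium dye for 40 to 90 min at room temperature. After a 10 s baseline, compound was added and calcium influx was read kinetically for 3 min (ex 480/em 520 nm).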

The chains behind the UniProt entries cited, without tags or fusion partners.
UniProt Q8NER1, whole entry, looked up: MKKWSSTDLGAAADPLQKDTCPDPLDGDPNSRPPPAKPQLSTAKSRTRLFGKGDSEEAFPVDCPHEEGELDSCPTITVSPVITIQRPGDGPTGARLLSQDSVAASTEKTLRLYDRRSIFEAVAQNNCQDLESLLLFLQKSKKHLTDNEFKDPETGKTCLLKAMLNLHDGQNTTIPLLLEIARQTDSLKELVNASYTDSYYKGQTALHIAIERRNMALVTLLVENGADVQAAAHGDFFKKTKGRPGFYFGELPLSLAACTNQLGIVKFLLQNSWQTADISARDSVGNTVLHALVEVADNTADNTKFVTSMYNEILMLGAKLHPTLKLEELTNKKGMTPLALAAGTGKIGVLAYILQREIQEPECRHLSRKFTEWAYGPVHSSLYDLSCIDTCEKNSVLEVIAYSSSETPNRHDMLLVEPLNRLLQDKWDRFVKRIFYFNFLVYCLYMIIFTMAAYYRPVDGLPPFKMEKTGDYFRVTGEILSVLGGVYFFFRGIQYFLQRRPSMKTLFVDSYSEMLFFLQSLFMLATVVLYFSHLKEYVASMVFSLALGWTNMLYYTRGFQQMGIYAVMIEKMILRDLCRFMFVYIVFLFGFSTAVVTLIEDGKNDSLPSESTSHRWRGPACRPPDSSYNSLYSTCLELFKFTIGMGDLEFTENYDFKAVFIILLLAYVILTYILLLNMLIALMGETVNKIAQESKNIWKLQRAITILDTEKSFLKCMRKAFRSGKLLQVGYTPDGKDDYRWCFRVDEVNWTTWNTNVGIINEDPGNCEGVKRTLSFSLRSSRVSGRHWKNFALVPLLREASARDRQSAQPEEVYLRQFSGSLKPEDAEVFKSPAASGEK

SMILES | activation
Cc1ccc(N(C)S(=O)(=O)c2cc(-c3cnc(C4CC4)o3)ccc2C)cc1 | inconclusive: 77.4%
COC(=O)c1ccccc1SC(CC(=O)c1ccccc1)c1ccc(F)cc1 (stereo unspecified) | inconclusive: 37.9%
CN(CCC1CCCCO1)C(=O)c1cc(COc2ccc(F)cc2F)on1 (stereo unspecified) | inconclusive: 36.1%
COc1ccc(NC(=O)CN(C)CC(=O)NC(=O)NC2CCCCC2)cc1 | inconclusive: 31.6%
O=C(NC1CCCCCC1)C(Cc1ccccc1)n1cccc1 (stereo unspecified) | inconclusive: 55.7%
CCc1ccccc1NC(=S)NC1CC2CCC(C1)N2Cc1ccc(F)cc1 (stereo unspecified) | inactive: 2.55%
Cn1cc(CCC(=O)NCc2ccc(Cl)cc2)c2ccccc21 | inconclusive: 42.7%
O=C(COc1ccccc1)N1CCN(c2ccccc2)CC1 | inactive: 17.3%
Cc1ccc(CSCCNC(=O)c2ccc(C)cc2)cc1 | inconclusive: 59.6%
COc1ccc(NC(=O)c2oc3ccccc3c2CSC)cn1 | inconclusive: 46.1%
CC(C)(Oc1ccc(Cl)cc1)C(=O)NC1CCCCC1 | inconclusive: 50.1%
Fc1ccccc1NC(=S)NCCc1ccc(Cl)cc1 | inconclusive: 39.9%
CCN(c1ccccc1)S(=O)(=O)c1ccc(C(=O)N2CC(C)CC(C)C2)cc1 (stereo unspecified) | inconclusive: 37.8%
O=S(=O)(Nc1cc(Sc2cccc3cccnc23)c(O)c2ccccc12)c1ccccc1 | inactive: 3.35%
COc1ccc(-c2c[n+](CC(=O)OC3CC(C)CCC3C(C)C)c3n2CCC3)cc1 (stereo unspecified) | inactive: 1.52%
CC(=O)NCCc1nc2ccccc2n1CCCCOc1ccccc1 | inconclusive: 64.4%
CC(C)(C)c1ccc(OCC(=O)N/N=C/C2CC=CCC2)cc1 (stereo unspecified) | inconclusive: 46%
CC(SCc1ccccc1)C(=O)Nc1ccc2c(c1)OCO2 (stereo unspecified) | inconclusive: 43.4%
Cc1occc1C(=O)NCCc1ccc(Cl)cc1 | inconclusive: 40.5%
O=C(NCc1cccc(C(F)(F)F)c1)c1ccc2c(c1)OCCO2 | inconclusive: 50.4%
Cc1[nH]c(=S)c(C#N)c(C)c1Cc1ccc(Cl)cc1Cl | inactive: -0.016%
S=c1[nH]nc(COc2ccccc2)n1/N=C/c1ccccc1Cl | inactive: 17.9%
O=C(NCc1ccncc1)C1CCCN(S(=O)(=O)c2cc(Cl)ccc2Cl)C1 (stereo unspecified) | active: 87.2%

Quoted from above for reference:
SMILES | activation
COC(=O)c1ccccc1SC(CC(=O)c1ccccc1)c1ccc(F)cc1 (stereo unspecified) | inconclusive: 37.9%
CN(CCC1CCCCO1)C(=O)c1cc(COc2ccc(F)cc2F)on1 (stereo unspecified) | inconclusive: 36.1%
COc1ccc(NC(=O)CN(C)CC(=O)NC(=O)NC2CCCCC2)cc1 | inconclusive: 31.6%

Next entries follow:

SMILES | activation
Cc1cccc2cc3c(NC(=O)c4ccccn4)nn(C)c3nc12 | inconclusive: 47.3%
Cc1cc(Cl)ccc1Oc1nccc(N(C)C)c1C#N | inconclusive: 43.2%
c1ccc(-c2csc(N3CCCCCC3)n2)cc1 | inactive: 6.63%
CCCOP(=O)(c1ccc(N(C)C)cc1)C(O)c1ccc(Cl)cc1Cl (stereo unspecified) | inconclusive: 32.4%
Cc1c(Br)c([N+](=O)[O-])nn1CC(=O)Nc1ccc(CC#N)cc1 | inactive: 2.28%
COc1cc(/C=C/C(=O)OCC(=O)N2CC3(C)CC2CC(C)(C)C3)ccc1O (stereo unspecified) | inconclusive: 32.2%
CC(C(=O)NCC1CCCCC1)N1CCc2ccccc2C1 (stereo unspecified) | inconclusive: 34.5%
COc1cccc(OC)c1C(=O)NC(=S)N1CCOCC1 | inactive: -2.56%
CCCCS(=O)(=O)N1C2=NC(C(=O)OC)=C(C(=O)OC)[C@@H]3N(C)c4ccc(OC)cc4[C@]23C[C@H]1C(=O)OC | inconclusive: 33.4%
COc1cc(/C=C2\CCC/C(=C\c3ccc(O)c(OC)c3)C2=O)ccc1O | inactive: -0.237%
N#CC(C#N)=C(Nc1ccc(F)cc1)SCc1cccc(F)c1 | inactive: 12.9%
COc1ccc(CCNC(=O)CSc2nc(N)c(C#N)c(-c3cccs3)c2C#N)cc1OC | inactive: 5.88%
CCCCNC(=O)c1onc(CSc2ccncc2)c1C(=O)NCCCC | inconclusive: 62.5%
Cc1c(N/C(=N/S(=O)(=O)c2ccc(Cl)cc2)c2ccccc2)c(=O)n(-c2ccccc2)n1C | inactive: -0.701%
COc1cc(/C=N/n2c(C)nc3ccccc3c2=O)cc(OC)c1O | inactive: 4.25%
CSc1ccc(NC(=O)N2CCN(c3nc4ccccc4s3)CC2)cc1 | inconclusive: 77.1%
CCCCc1ccc(NC(=O)C(=O)NCCN2CCN(C(=O)c3ccc([N+](=O)[O-])cc3)CC2)cc1 | inactive: -6.14%
O=C(N/N=C/c1ccc(O)cc1O)/C(=C/c1ccccc1)CCO | inactive: 2.06%
Nc1cc(=O)nc(SCC(=O)Nc2ccccc2)n1-c1ccccc1 | inactive: 1.44%
Nc1nonc1N/N=C/c1c(O)ccc2ccccc12 | inconclusive: 40.2%
O=C(N/N=C/C=C\c1ccccc1)c1cnccn1 | inactive: 18.7%
CCOC(=O)c1cccc(OC(=O)CCNC(=O)c2ccc(Cl)cc2)c1 | inconclusive: 35.3%
CN(C)/C=N/C(=S)Nc1ccc(Cl)cc1Cl | inactive: -3.04%

SMILES | activation
O=C(NCCN1CCN(C(=O)c2ccc(Br)cc2)CC1)c1ccc(Br)cc1 | inactive: 4.42%
Cc1cc(C)cc(NC(=O)Nc2ccc3c(c2)N(C)C(=O)CS3)c1 | inconclusive: 51.4%
COc1ccc(-c2cnnc(N/N=C/c3ccc(-c4ccc([N+](=O)[O-])cc4)o3)n2)cc1 | inactive: -3.02%
Cc1snc(SCc2ccc(F)cc2)c1C#N | inconclusive: 46.7%
CC(=O)N(CCc1ccccc1)Cc1cc2ccc(C)c(C)c2[nH]c1=O | inconclusive: 58.7%
COc1ccc(C(=O)NCc2c(C)oc(C)c2C(=O)O)cc1 | inactive: -0.674%
CCOC(=O)Nc1nnc(-c2ccccc2OC)s1 | inconclusive: 33.2%
COc1cccc2[nH]c3c(N4CCCCC4)ncnc3c12 | inactive: 2.61%
NS(=O)(=O)c1cccc(NC(=O)COC(=O)CC2CC3CCC2C3)c1 (stereo unspecified) | inconclusive: 59.4%
CCOc1cc(/C=C/c2nc3cc(C)c(C)cc3s2)ccc1OCC(=O)N1CCOCC1 | inconclusive: 43.7%
Cc1nn(C)c(Cl)c1CN1CCCC(C(=O)Nc2ccc(-c3cscn3)cc2)C1 (stereo unspecified) | inconclusive: 34.1%
Cc1ccc(S(=O)(=O)n2nccc2-c2c(-c3ccc(Cl)cc3)noc2C)cc1 | inconclusive: 32.7%
Cc1ccc(NC(=O)C(C)OC(=O)COc2cccc(C(F)(F)F)c2)cc1 (stereo unspecified) | inconclusive: 44.7%
Cc1ccc(S(=O)(=O)Nc2ncc(C(F)(F)F)cc2Cl)cc1 | inactive: 2.15%
Cc1ccc(-c2cc(C(=O)NCc3cnn(C)c3)c3cc(Br)ccc3n2)cc1 | inconclusive: 68.9%
O=C(Nc1ccc(Cc2ccncc2)cc1)c1cc([N+](=O)[O-])ccc1N1CCOCC1 | inconclusive: 30.5%
CC(C)CCC1(CCNC(=O)c2cccs2)CCOC(C)(C)C1 (stereo unspecified) | active: 82.6%
Cc1ccc(S(=O)(=O)Nc2nc(-c3ccccc3)cs2)cc1 | inactive: 1.21%
CN(CC(=O)Nc1cccc(F)c1)C(=O)c1ccc(C(=O)c2ccccc2)cc1 | inconclusive: 41.7%
O=C(Nc1ccc(Cl)c(Cl)c1)c1ccccc1 | inconclusive: 76.5%
COc1ccc(NC(=O)c2cc(-c3ccccc3Cl)no2)cc1 | inconclusive: 35.8%
O=C(NCc1ccc2c(c1)OCO2)Nc1ccc(F)cc1 | inconclusive: 52.3%
Cc1cccn2c(=O)c3cc(C(=O)NC4CCCC4)n(C)c3nc12 | inconclusive: 46%

SMILES | activation
COc1ccc2nc(NC(=O)c3ccccc3O)sc2c1 | inconclusive: 35.2%
COc1ccc(NC(=O)c2cc(Br)c(Br)s2)cn1 | inconclusive: 50.4%
O=C(CN1CCOCC1)Nc1nc(-c2ccc(Cl)cc2)cs1 | inconclusive: 67.5%
CCCn1nc(NC(=O)C(C)(C)C)c2cc3cc(OC)ccc3nc21 | inconclusive: 30.6%
NCC(c1ccccc1Cl)c1c[nH]c2ccccc12 (stereo unspecified) | inactive: 5.53%
Cc1nc(Cl)c(C(=O)NCc2ccccc2)c(C)c1Cl | inactive: 10.6%
CC(=O)Nc1ccc(S(=O)(=O)N(C#N)c2nc(N(C)C)nc(N(C)C)n2)cc1 | inactive: -1.17%
CC(NC(=O)c1ccc2ccccc2n1)c1ccc(S(N)(=O)=O)cc1 (stereo unspecified) | inconclusive: 30.6%
O=C(C1CCCN(S(=O)(=O)c2cccc3nonc23)C1)N1CCN(c2cccc(Cl)c2)CC1 (stereo unspecified) | inactive: -0.62%
CCCCN(C(=O)c1ccc2ccccc2c1)c1c(N)n(CCCC)c(=O)[nH]c1=O | inactive: -2.14%
COc1cc(/C=N/Nc2nc3c(c(=O)n(C)c(=O)n3C)n2Cc2ccccc2)ccc1OC(=O)c1ccco1 | inactive: -4.21%
c1ccc(-c2nccc(-c3ccco3)n2)nc1 | inactive: 2.2%
COc1ccc(CNCCC(c2ccc(F)cc2)c2ccc(OC(C)C)cc2)cc1OC (stereo unspecified) | inactive: 17.9%
Cc1cccc(-c2noc(CNC(=O)Nc3ccc(F)cc3)n2)c1 | inconclusive: 50.1%
COc1ccc(NC(=O)CN(C)C(=O)/C=C/c2ccc(S(=O)(=O)N3CCCCCC3)cc2)cc1 | inactive: 1.23%
COC(=O)c1sccc1NC(=S)NCc1ccc(Cl)cc1 | inconclusive: 64.2%
O=C(N/N=C/c1ccccc1C(=O)O)c1cccc(S(=O)(=O)N2CCOCC2)c1 | inconclusive: 30.2%
N=c1c(C(=O)NC2CCCC2)cc2c(=O)n3ccccc3nc2n1CC1CCCO1 (stereo unspecified) | inactive: 2.98%
COc1ccc(-c2cc3nc(-c4ccccc4)cc(N4CCC5(CC4)OCCO5)n3n2)cc1 | inactive: 0.172%
Cc1cccc(N2CCN(C(=O)NC3CCCCC3)CC2C)c1 (stereo unspecified) | active: 93.3%
Cc1ccc(Nc2nc(Cl)nc(NC(C)(C)C)n2)cc1 | inconclusive: 47.8%
COc1cc(/C=N/NC(=O)C2CCN(CC(O)COCc3ccccc3)CC2)cc(OC)c1OC (stereo unspecified) | inactive: 0.408%
